From EP0745083B1, “2-HETEROARYL-5,11-DIHYDRO-6H-DIPYRIDO [3,2-b:2',3'-e][1,4]DIAZEPINES AND THEIR USE IN THE PREVENTION OR TREATMENT OF HIV INFECTION” (BOEHRINGER INGELHEIM PHARMACEUTICALS INC., priority 1994, dated 1995)
At least one structure is not confirmed: it was looked up by name or label, or the drawing left a doubt.

Target: T1, HIV-1 RT Y188L (Human immunodeficiency virus type 1 group M subtype B, UniProt P03367, Y787L)
T1 construct: effective against the reverse transcriptase of many mutant viruses; made in house
Test: Reverse Transcriptase (RT) Assay, Y188L mutant enzyme
Format: biochemical, Human Immunodeficiency Virus (HIV-1)
Details: 1 µM compound

Row | Structure (SMILES) | Reverse Transciptase Assay % inhibition (1 µM) Y188L [%]
1 | CCN1c2ncccc2C(=O)N(C)c2ccc(-c3cc[nH]c3)nc21 [Example 12, 5,11-Dihydro-11-ethyl-5-methyl-2-(3-pyrrolyl)-6H-dipyrido[3,2-b:2',3'-e][1,4]diazepin-6-one] | 78
2 | CCOC(=O)c1cc(-c2ccc3c(n2)N(CC)c2ncccc2C(=O)N3C)c[nH]1 [Example 16, 5,11-Dihydro-2-[2-(ethoxycarbonyl)pyrrol-4-yl]-11-ethyl-5-methyl-6H-dipyrido-[3,2-b:2',3'-e][1,4]diazepin-6-one] | 34
